Laboratory results taken from paper PMC4861423.
Results are given in words; binding and its absence hold for the method and conditions named. In cells and extracts the contact can be indirect. Some entries that bind do so weakly or less than the wild type.

Sequences of proteins named here, by UniProt entry; tags and fusion partners are left off. Residues count along the entry.
UniProt Q93050: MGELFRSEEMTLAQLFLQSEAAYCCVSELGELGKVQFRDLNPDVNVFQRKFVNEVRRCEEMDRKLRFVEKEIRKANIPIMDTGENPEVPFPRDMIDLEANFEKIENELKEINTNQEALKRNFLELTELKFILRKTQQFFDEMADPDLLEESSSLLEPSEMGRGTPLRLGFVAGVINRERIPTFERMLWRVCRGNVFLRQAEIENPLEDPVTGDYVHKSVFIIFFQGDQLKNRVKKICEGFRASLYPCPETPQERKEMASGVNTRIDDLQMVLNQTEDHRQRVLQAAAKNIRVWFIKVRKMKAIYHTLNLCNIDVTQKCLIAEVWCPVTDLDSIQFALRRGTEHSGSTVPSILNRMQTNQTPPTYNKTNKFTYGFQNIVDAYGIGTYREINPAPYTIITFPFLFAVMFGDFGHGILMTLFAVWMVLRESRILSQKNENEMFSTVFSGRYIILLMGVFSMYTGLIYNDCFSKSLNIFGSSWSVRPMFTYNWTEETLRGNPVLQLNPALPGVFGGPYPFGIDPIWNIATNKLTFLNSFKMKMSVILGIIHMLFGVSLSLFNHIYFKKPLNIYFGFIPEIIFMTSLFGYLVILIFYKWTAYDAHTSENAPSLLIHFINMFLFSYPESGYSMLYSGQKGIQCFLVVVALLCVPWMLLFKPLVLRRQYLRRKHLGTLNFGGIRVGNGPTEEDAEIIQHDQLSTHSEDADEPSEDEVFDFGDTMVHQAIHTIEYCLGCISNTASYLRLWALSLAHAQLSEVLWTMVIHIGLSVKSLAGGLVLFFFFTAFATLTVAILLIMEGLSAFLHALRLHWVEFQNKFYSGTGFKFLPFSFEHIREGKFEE
UniProt Q13488: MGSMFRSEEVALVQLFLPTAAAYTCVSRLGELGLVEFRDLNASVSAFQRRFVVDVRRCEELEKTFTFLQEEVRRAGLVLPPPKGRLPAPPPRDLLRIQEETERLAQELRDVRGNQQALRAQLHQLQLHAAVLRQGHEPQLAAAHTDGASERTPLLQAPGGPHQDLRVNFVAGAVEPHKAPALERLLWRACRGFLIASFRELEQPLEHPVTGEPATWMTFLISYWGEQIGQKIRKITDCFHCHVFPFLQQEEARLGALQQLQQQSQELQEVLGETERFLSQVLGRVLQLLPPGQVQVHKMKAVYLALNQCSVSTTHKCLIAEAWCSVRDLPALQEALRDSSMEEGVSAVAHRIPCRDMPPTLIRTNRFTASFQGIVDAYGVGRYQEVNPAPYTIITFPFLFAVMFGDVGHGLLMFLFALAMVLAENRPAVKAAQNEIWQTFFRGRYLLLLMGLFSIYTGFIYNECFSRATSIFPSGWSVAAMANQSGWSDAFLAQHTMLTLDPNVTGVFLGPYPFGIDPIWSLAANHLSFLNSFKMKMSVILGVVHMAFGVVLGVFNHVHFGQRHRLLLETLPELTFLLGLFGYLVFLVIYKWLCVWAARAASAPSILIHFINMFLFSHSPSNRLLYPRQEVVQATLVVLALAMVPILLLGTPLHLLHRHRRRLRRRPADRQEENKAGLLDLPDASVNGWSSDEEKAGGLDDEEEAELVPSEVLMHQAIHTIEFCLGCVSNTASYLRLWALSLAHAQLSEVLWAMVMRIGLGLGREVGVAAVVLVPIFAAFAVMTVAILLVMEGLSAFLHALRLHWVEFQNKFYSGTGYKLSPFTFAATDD
UniProt Q15904, residues 42-470: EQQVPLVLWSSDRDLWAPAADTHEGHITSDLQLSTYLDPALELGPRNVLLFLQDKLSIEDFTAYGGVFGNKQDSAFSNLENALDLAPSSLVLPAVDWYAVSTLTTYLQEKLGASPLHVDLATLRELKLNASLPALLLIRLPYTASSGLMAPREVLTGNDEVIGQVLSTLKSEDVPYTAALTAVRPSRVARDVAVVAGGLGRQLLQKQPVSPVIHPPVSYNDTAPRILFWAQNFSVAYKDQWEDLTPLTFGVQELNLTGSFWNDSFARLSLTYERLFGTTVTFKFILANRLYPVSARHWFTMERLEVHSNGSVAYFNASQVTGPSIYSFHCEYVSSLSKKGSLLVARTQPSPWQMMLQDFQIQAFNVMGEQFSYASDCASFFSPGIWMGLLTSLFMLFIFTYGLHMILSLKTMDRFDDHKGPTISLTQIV

Key:
[1] = molecular target: V-ATPase membrane subunit a isoform 1 (ATP6V0A1) (human (endogenous in PC-3)) (UniProt Q93050); assay: co-IP; endogenous proteins of PC-3 cells solubilised in RIPA buffer (1% Nonidet P-40, 0.5% deoxycholate, 150 mM NaCl), lysate 1 mg/ml; rabbit anti-a3 antiserum or anti-a1 rabbit IgG, 4 °C, 6 h; beads washed three times with RIPA; immunoblot; pre-immune/normal rabbit serum as control
[2] = molecular target: V-ATPase membrane subunit a isoform 3 (ATP6V0A3) (human (endogenous in PC-3)) (UniProt Q13488); assay: as above

With “V-ATPase membrane subunit a isoform 3 (ATP6V0A3) (from UniProt Q13488 1-830)” as the substance, how does the binding [1] read?
Its binding is “no binding”.

With “V-ATPase membrane subunit a isoform 1 (ATP6V0A1) (from UniProt Q93050 1-837)” as the substance, how does the binding [2] read?
The binding was “no binding”.

“V-ATPase accessory protein Ac45 (ATP6AP1) (from UniProt Q15904 42-470)” was tested. Which binding [2] did it give?
Its binding is “binds”.

And the binding [1]?
The binding was “binds”.
